Source: patent US20210260157A1
These are yes or no findings as the source states them, for the method shown. Some entries that bind do so weakly or less than the wild type.

The chains behind the UniProt entries cited, without tags or fusion partners. Residues count along the entry.
UniProt P40224, residues 22-89: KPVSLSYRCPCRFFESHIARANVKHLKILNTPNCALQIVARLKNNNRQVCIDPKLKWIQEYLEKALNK
UniProt P63158: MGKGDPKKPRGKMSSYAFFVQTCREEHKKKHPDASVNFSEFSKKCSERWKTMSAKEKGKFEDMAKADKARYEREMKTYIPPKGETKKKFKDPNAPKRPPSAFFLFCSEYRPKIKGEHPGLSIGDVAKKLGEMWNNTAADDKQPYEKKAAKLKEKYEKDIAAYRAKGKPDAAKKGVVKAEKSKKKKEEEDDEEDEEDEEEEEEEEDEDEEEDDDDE

Molecular target: CXCL12, endogenous, in mouse plasma (mouse) (UniProt P40224)
Experiment: hybrid sandwich ELISA on plasma (capture anti-CXCL12, detection anti-HMGB1)

Substance: HMGB1 (High Mobility Group Box 1), endogenous, in mouse plasma (from UniProt P63158 1-215)
- binding: binds
